Test results: PubChem BioAssay AID504444 (National Center for Advancing Translational Sciences (NCATS), 2011)
Out of some 360,000 compounds screened, about 7,500 (2.1%) were called active. The shares of active, inactive and inconclusive entries below differ from those in the screen. The call rests on the fitted dose curve; in most records, active means well fitted inhibition curve with a large enough effect; inconclusive means small, poorly fitted or top-dose-only effect, or effect the other way; inactive means flat fitted curve, though single readings scatter. Potencies of inconclusive entries are doubtful fits and often do not repeat.

assay: Nrf2 qHTS screen for inhibitors; conditions: A549 ARE-Fluc reporter, luciferase luminescence, 18-24 h; activity change, negative = inhibition: at 46 µM (top of the series); further: nearly all actives have a fitted effect of over 60% in size
Outline: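 Two sequential reads on A549 ARE_Fluc cells exposed to compound for 18-24 h: a CellTiter-Fluor fluorescence read for viability, then a luciferase luminescence read for Nrf2/ARE activity.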
On the % scale 0 is the no-effect control and ±100 the full control effect; potency means the concentration at half of the fitted maximal effect.

SMILES	Potency	activity change, negative = inhibition
Cc1cccc(NC(=O)c2ccc3c(c2)OCCO3)c1C	inconclusive: 6.51 µM [falling, single point]	–
COc1ccc(NS(=O)(=O)c2ccc(C(=O)N(C)Cc3ccc(C)o3)cc2)cc1	inconclusive: 23.1 µM [falling, single point]	–
CNC(=O)N(O)C1N(/N=C/c2ccc(N(C)C)cc2)C(=S)SC1(C)C (stereo not drawn)	–	inactive: 3.6%
C=CCn1c(SCC(=O)Nc2nc3ccccc3s2)nnc1-c1ccccc1O	inconclusive: 32.6 µM [falling, single point]	–
CCc1ccc(C(=O)C(C)OC(=O)c2nn(C)c(=O)c3ccccc23)cc1 (stereo not drawn)	inconclusive: 25.9 µM [falling, partial curve, poor fit]	–
O=C(Cn1nc2ccccc2n1)N/N=C/c1cc(Cl)cc([N+](=O)[O-])c1O	inconclusive: 0.731 µM [falling, full curve, poor fit]	–
CCCSc1nc2c(cnn2-c2ccccc2)c(=O)[nH]1	inconclusive: 11.6 µM [falling, partial curve]	–
CCOC(=O)C1=CC[C@@H](c2cccc(C)c2)N(S(=O)(=O)c2ccc(C)cc2)[C@H]1C(=O)OCC	inconclusive: 18.4 µM [falling, single point]	–
O=C(CSc1ncccn1)NCc1ccccc1	inconclusive: 16.4 µM [activator, partial curve, poor fit]	–
CCOC(=O)c1[nH]c2c(c1Cc1ccccc1)C(=O)CC(c1ccccc1)C2 (stereo not drawn)	inconclusive: 20.6 µM [falling, single point]	–
Cc1ccc(-c2noc(-c3nnn(CC(=O)Nc4ccc(C)c(Cl)c4)c3N)n2)cc1	–	inactive: 23%
CCOC(=O)CCCCC(=O)NC(CO)C(=O)NC (stereo not drawn)	inconclusive: 0.731 µM [activator, full curve, poor fit]	–
O=C(Nc1cc(S(=O)(=O)N2CCOCC2)ccc1O)c1ccc(NS(=O)(=O)c2ccc(Cl)s2)cc1	–	inactive: 1.92%
COC(=O)CCNc1ccc2c(c1)OCCO2	inconclusive: 8.2 µM [activator, partial curve]	–
COc1ccc(C(=O)Nc2ccc3c(c2)n(C)c(=O)n3C)cc1OC	inconclusive: 14.6 µM [falling, partial curve, poor fit]	–
Cc1ccc(N2C(=O)c3cccc4c(N)ccc(c34)C2=O)c2cccnc12	inconclusive: 29.1 µM [activator, single point]	–
O=C(Nc1ccon1)c1ccc2c(c1)OCO2	inconclusive: 3.66 µM [activator, single point]	–
O=C(C1=C[C@H](c2coc3ccccc3c2=O)C[C@H](OCc2ccc(CO)cc2)O1)N1CCN(Cc2ccc3c(c2)OCO3)CC1	–	inactive: -23.9%
COc1cccc(-c2nc(CS(=O)(=O)CC(=O)Nc3ccccc3Cl)c(C)o2)c1	inconclusive: 18.4 µM [falling, single point]	–
CN(c1ccc(C(=O)N2CCCCCC2)cc1)S(=O)(=O)c1ccc(Cl)cc1	active: 23.1 µM	–
COC(=O)[C@@]1(C)[C@H]2C(=O)N(C)C(=O)[C@H]2[C@H]2CN=C(SCc3ccccc3)N21	inconclusive: 29.1 µM [activator, single point]	–

Taken from above:
CCOC(=O)CCCCC(=O)NC(CO)C(=O)NC (stereo not drawn) | Potency: inconclusive: 0.731 µM [activator, full curve, poor fit]
O=C(Cn1nc2ccccc2n1)N/N=C/c1cc(Cl)cc([N+](=O)[O-])c1O | Potency: inconclusive: 0.731 µM [falling, full curve, poor fit]
CCOC(=O)C1=CC[C@@H](c2cccc(C)c2)N(S(=O)(=O)c2ccc(C)cc2)[C@H]1C(=O)OCC | Potency: inconclusive: 18.4 µM [falling, single point]
CNC(=O)N(O)C1N(/N=C/c2ccc(N(C)C)cc2)C(=S)SC1(C)C (stereo not drawn) | activity change, negative = inhibition: inactive: 3.6%

(more compounds)

SMILES	Potency	activity change, negative = inhibition
O=C(CCl)NCCNC(=O)c1cc(OCC(F)(F)F)ccc1OCC(F)(F)F	inconclusive: 32.6 µM [falling, single point]	–
Fc1ccccc1CSc1nnc(-c2cccnc2)o1	inconclusive: 16.4 µM [activator, partial curve, poor fit]	–
COC(=O)c1cc(Cl)c(NC(=O)c2cc3ccccc3o2)cc1OC	inconclusive: 0.82 µM [activator, full curve]	–
CCC(C)C(NC(=O)OC(C)(C)C)C(=O)NC(C)C(N)=O (stereo not drawn)	–	inactive: 13.8%
CCOc1ccccc1CNC(=O)Cn1nc(C)c2c(C)n(-c3ccc(C)cc3)nc2c1=O	active: 9.2 µM	–
CC(C(=O)NC1CCCC1)N(C(=O)Cn1nnc(-c2ccc(F)cc2)n1)c1ccccc1F (stereo not drawn)	inconclusive: 20.6 µM [falling, single point]	–
CCc1cccc(C)c1NC(=O)Cc1ccsc1	inconclusive: 29.1 µM [falling, single point]	–
Cc1cc2nc(N3C(=O)CNC3=S)sc2cc1C	inconclusive: 25.9 µM [activator, partial curve, poor fit]	–
COCCCNC(=O)c1ccc2c(c1)OCO2	inconclusive: 9.2 µM [activator, partial curve]	–
COC(=O)c1cc2nc(-c3ccccc3)cc(C(F)(F)F)n2n1	–	inactive: 10.2%
Cc1c(C(=O)Nc2cccc(S(=O)(=O)N3CCOCC3)c2)oc2ccc(Br)cc12	inconclusive: 0.092 µM [activator, full curve, poor fit]	–
COc1ccc(NC(=O)C2(S(=O)(=O)c3ccc(C)cc3)CC2)cc1	inconclusive: 18.4 µM [activator, partial curve, poor fit]	–
CCOC(=O)c1ccc(Nc2cc(C)nc(-c3ccccc3)n2)cc1	inconclusive: 10.3 µM [falling, partial curve]	–
Cc1ccc(C)c(Cn2c(=O)n(-c3ccccc3)c(=O)c3c4c(sc32)CCCC4)c1	inconclusive: 29.1 µM [activator, partial curve, poor fit]	–
Cc1cc2oc(=O)c(CC(=O)O)c(C)c2c2occ(-c3ccccc3)c12	inconclusive: 16.4 µM [activator, single point]	–
O=C(CCC(=O)N1CCCC1)Nc1nnc(C2CCCCC2)s1	inconclusive: 4.61 µM [falling, partial curve, poor fit]	–
O=C(Nc1cccc(S(=O)(=O)N2CCCCC2)c1)C1CC(=O)N(c2ccc3c(c2)OCCO3)C1 (stereo not drawn)	inconclusive: 20.6 µM [falling, partial curve]	–
CS(=O)c1ccccc1COC(=O)Nc1ccccc1 (stereo not drawn)	inconclusive: 1.64 µM [falling, partial curve, poor fit]	–
O=C(c1ccc([N+](=O)[O-])s1)N1CCN(c2cccc(Cl)c2)CC1	inconclusive: 23.1 µM [falling, single point]	–
O=C(Nc1ccc(S(=O)(=O)N2CCCCC2)cc1)C1CCCN(C(=O)c2ccc(Cl)cc2)C1 (stereo not drawn)	inconclusive: 29.1 µM [falling, single point]	–
N#CCCn1cc(C(=O)Nc2ccccc2Br)c(-c2cccs2)n1	inconclusive: 23.1 µM [falling, partial curve, poor fit]	–

SMILES	Potency	activity change, negative = inhibition
O=C(OCc1nc2ccccc2[nH]1)C12CC3CC(CC(C3)C1)C2	inconclusive: 32.6 µM [falling, single point]	–
CCN(C(=O)CSc1ccc2ccccc2c1)C1CCS(=O)(=O)C1 (stereo not drawn)	inconclusive: 4.61 µM [falling, partial curve, poor fit]	–
C=CCOc1ccc(NC(=O)C(=O)NCCCn2ccnc2)cc1	–	inactive: -26.7%
O=c1cccccc1NN=C1CCCCCC1	inconclusive: 29.1 µM [activator, single point]	–
CC(c1ccccc1)n1c(-c2ccccc2F)n[nH]c1=S (stereo not drawn)	inconclusive: 20.6 µM [falling, single point]	–
COC(=O)c1c(NC(=O)c2ccccc2N(C)S(=O)(=O)c2ccccc2)sc2c1CCCC2	inconclusive: 8.2 µM [falling, partial curve, poor fit]	–
Cc1nc(C)c(-c2ccc(SCC(=O)Nc3cccc(Cl)c3C)nn2)s1	inconclusive: 18.4 µM [falling, partial curve, poor fit]	–
O=C(CN1C(=O)NC2(CCCC2)C1=O)Nc1cc(C(F)(F)F)ccc1N1CCOCC1	inconclusive: 29.1 µM [falling, single point]	–
CN(C)c1ccc(C=c2c3ccccc3n3c2cc(-c2ccc(Cl)cc2)[n+]3C)cc1	inconclusive: 29.1 µM [falling, single point]	–
N#Cc1ccc(C(=O)CN2CCN(c3ccccc3)CC2)cc1	–	inactive: 19.5%
N#CCc1ccc(NS(=O)(=O)c2ccc(N3CCCC3=O)cc2)cc1	inconclusive: 18.4 µM [falling, single point]	–
Nc1ccc(Oc2ncccn2)cc1	–	inactive: -15.8%
Cc1ccc(S(=O)(=O)N2CN(Cc3ccco3)c3nc4ccccc4nc32)cc1C	inconclusive: 32.6 µM [falling, single point]	–
CCOC(=O)[C@H]1[C@H]2COc3ccc(Br)cc3[C@@H]2N2C(=O)CN(Cc3ccc(Cl)cc3)C(=O)[C@@]12C	–	inactive: -26.7%
Cc1ccc(OCC(=O)Nc2ccc(N3CCN(C(=O)c4ccco4)CC3)cc2)c(C)c1	inconclusive: 6.51 µM [falling, full curve, poor fit]	–
CN(C)S(=O)(=O)Oc1ccc(C(=O)Nc2cccc(Cl)c2)cc1	inconclusive: 13 µM [activator, partial curve, poor fit]	–
Cc1cc(C)c(NC(=S)N2CCN(c3ccc([N+](=O)[O-])cn3)CC2)cc1C	inconclusive: 29.1 µM [falling, single point]	–
COCc1cc(=O)oc2cc(NS(=O)(=O)c3ccc(C)cc3)ccc12	inconclusive: 9.2 µM [falling, partial curve, poor fit]	–
CCOc1ccc(NCc2nnc(SCc3ccccc3Cl)n2-c2ccccc2)cc1	inconclusive: 29.1 µM [falling, single point]	–
CC(C)(C)OC(=O)[C@H](Cc1ccccc1)NC(=O)c1nc[nH]c1C(=O)N1CCN(C(=O)OC(C)(C)C)CC1	inconclusive: 29.1 µM [activator, single point]	–
Cc1ccsc1C(=O)N1CCN(c2ncc(C(F)(F)F)cc2Cl)CC1	inconclusive: 23.1 µM [falling, partial curve]	–
